Assay results reported in publication PMC7862700.
Only a part is listed here, and it is no random draw. At the low end of the ranking the order means little.

Sequences of proteins named here, by UniProt entry; tags and fusion partners are left off. A change or cut given only in a name is not applied to a line headed by its entry.
UniProt Q99607: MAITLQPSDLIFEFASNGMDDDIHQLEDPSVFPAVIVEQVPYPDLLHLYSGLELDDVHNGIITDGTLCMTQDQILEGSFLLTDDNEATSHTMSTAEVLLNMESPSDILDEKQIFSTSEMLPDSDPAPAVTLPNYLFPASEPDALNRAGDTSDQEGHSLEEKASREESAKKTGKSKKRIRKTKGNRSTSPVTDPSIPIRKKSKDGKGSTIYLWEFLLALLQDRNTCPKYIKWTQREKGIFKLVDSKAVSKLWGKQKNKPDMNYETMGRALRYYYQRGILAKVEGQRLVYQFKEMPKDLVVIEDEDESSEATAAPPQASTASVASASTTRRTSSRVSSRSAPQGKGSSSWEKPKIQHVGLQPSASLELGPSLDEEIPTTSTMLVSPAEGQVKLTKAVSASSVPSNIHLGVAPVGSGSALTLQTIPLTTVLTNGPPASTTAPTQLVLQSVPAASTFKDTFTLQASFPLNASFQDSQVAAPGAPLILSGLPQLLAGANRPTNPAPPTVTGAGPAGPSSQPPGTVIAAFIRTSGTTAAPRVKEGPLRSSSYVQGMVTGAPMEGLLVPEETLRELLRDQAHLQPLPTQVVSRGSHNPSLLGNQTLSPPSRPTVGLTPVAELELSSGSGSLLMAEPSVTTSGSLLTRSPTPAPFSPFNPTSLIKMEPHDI

molecular target: ELF4 (UniProt Q99607); assay: DAPPL (digital affinity profiling via proximity ligation, sequencing); details: 10 mM Tris-HCl pH 7.5, 50 mM NaCl, 1 mM DTT, 4% glycerol, room temperature, 30 min; GST-TFs on glutathione beads, 16-mer random dsDNA library, 0.1% …; high values mean tight binding; double strand, one strand shown; scale: fold enrichment (6-mer frequency, TF over GST control)

Question: For ATAACA, which binding signal is on record?
Answer: The binding signal was 1.28.

Question: Which binding signal does the source give for TACAAT here?
Answer: The binding signal was 1.26.

Question: For CATATC, which binding signal is on record?
Answer: Its binding signal is 1.29.

Question: For GAAACG, which binding signal is on record?
Answer: The binding signal was 1.14.

Question: TCAACG was tested. Which binding signal did it give?
Answer: The binding signal was 1.11.

Question: With CTGCTG as the sequence, how does the binding signal read?
Answer: Its binding signal is 1.25.

Question: Which binding signal does the source give for CATTTG here?
Answer: The binding signal was 1.26.

Question: CGGTTT was tested. Which binding signal did it give?
Answer: The binding signal was 1.21.

Question: CCTCGC was tested. Which binding signal did it give?
Answer: The binding signal was 1.6.

Question: Which binding signal does the source give for GTATCA here?
Answer: Its binding signal is 1.05.

Question: ACCGCT was tested. Which binding signal did it give?
Answer: The binding signal was 1.14.

Question: With CTCCAG as the sequence, how does the binding signal read?
Answer: Its binding signal is 1.21.

Question: CCCTAT was tested. Which binding signal did it give?
Answer: The binding signal was 1.37.

Question: ACTAAT was tested. Which binding signal did it give?
Answer: Its binding signal is 1.36.

Question: ATTTCG was tested. Which binding signal did it give?
Answer: The binding signal was 1.29.

Question: AGGATG was tested. Which binding signal did it give?
Answer: The binding signal was 0.97.

Question: How did the binding signal turn out when CATTAC was run?
Answer: Its binding signal is 1.1.

Question: With CCGACA as the sequence, how does the binding signal read?
Answer: Its binding signal is 1.13.

Question: With GTATGG as the sequence, how does the binding signal read?
Answer: The binding signal was 1.02.

Question: Which binding signal does the source give for AACGGC here?
Answer: Its binding signal is 1.24.

Question: With ATGTTA as the sequence, how does the binding signal read?
Answer: The binding signal was 1.33.

Question: AAAAAT was tested. Which binding signal did it give?
Answer: Its binding signal is 1.38.

Question: Which binding signal does the source give for CTTCCA here?
Answer: The binding signal was 1.33.

Question: ATATAT was tested. Which binding signal did it give?
Answer: The binding signal was 1.38.

Question: GAAAAT was tested. Which binding signal did it give?
Answer: The binding signal was 1.14.

Question: For CAACCG, which binding signal is on record?
Answer: Its binding signal is 0.995.

Question: For TTGATC, which binding signal is on record?
Answer: The binding signal was 1.14.

Question: Which binding signal does the source give for CGTACC here?
Answer: The binding signal was 1.17.

Question: TTCACG was tested. Which binding signal did it give?
Answer: The binding signal was 1.46.

Question: Which binding signal does the source give for TTGCTT here?
Answer: The binding signal was 1.24.

Question: How did the binding signal turn out when CTGACG was run?
Answer: Its binding signal is 1.06.

Question: For TATTTT, which binding signal is on record?
Answer: The binding signal was 1.4.

Question: With CTGTTG as the sequence, how does the binding signal read?
Answer: The binding signal was 1.17.

Question: With AACTCC as the sequence, how does the binding signal read?
Answer: The binding signal was 1.3.

Question: Which binding signal does the source give for ACCCAC here?
Answer: Its binding signal is 1.23.

Question: How did the binding signal turn out when GATGCA was run?
Answer: Its binding signal is 1.23.

Question: GGGTTC was tested. Which binding signal did it give?
Answer: Its binding signal is 1.12.

Question: Which binding signal does the source give for TAGGAA here?
Answer: The binding signal was 1.09.

Question: For CCTTGT, which binding signal is on record?
Answer: The binding signal was 1.29.

Question: ACAGGA was tested. Which binding signal did it give?
Answer: The binding signal was 1.04.
